Test results as given in paper PMC10469732.
Results are given in words; binding and its absence hold for the method and conditions named. In cells and extracts the contact can be indirect. Some results given as binding are weak or reduced against the parent protein; the word gives no strength.

Amino acid sequences for entries named in this document (tags omitted).
UniProt P42227: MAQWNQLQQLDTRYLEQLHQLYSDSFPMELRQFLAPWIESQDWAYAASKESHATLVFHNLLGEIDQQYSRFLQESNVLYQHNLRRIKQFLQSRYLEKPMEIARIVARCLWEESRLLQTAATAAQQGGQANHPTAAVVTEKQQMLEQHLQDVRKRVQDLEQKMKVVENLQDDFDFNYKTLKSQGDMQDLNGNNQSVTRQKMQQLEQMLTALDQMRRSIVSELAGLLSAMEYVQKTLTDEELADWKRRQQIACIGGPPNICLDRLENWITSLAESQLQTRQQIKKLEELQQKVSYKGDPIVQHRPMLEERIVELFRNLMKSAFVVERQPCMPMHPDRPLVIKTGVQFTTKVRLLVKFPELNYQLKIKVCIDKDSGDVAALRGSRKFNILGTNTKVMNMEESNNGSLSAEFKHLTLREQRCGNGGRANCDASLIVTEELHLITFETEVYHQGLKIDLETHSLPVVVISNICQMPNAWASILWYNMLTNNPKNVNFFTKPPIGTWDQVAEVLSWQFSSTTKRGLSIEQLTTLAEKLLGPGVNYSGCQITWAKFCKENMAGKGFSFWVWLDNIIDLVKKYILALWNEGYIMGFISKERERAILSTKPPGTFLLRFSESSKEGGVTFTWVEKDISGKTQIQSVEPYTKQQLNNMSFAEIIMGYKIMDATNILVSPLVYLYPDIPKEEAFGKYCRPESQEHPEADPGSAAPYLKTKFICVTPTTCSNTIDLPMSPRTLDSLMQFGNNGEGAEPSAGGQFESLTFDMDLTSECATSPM
UniProt P46938: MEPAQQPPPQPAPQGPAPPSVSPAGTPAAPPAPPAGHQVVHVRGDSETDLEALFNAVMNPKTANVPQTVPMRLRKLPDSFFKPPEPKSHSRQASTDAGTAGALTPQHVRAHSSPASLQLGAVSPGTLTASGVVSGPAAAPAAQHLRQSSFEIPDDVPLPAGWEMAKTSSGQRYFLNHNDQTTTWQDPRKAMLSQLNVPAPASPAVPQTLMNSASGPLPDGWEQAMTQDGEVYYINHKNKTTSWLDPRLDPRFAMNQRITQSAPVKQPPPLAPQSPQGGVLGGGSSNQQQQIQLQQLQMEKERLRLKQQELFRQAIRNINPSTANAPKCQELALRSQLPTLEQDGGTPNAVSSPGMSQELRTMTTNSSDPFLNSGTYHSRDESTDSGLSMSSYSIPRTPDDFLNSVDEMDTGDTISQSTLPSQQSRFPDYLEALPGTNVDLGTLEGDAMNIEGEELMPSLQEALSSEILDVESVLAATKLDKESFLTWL

Molecular target: Signal transducer and activator of transcription 3 (UniProt P42227)
Experiment: co-IP; lysate in IP lysis buffer; antibody to YAP or STAT3 overnight at 4°C, Protein A/G agarose beads 2 h at 4°C, 4 washes; normal rabbit IgG as control; western blot for STAT3 and YAP

YAP-associated protein (YAP) (from UniProt P46938 1-488)
binding: binds
